Screening data, single-dose tests

Protein sequences, listed by entry. Tags and fused reporters are not part of them. Residues count along the entry.
UniProt Q4DA54, 1-478: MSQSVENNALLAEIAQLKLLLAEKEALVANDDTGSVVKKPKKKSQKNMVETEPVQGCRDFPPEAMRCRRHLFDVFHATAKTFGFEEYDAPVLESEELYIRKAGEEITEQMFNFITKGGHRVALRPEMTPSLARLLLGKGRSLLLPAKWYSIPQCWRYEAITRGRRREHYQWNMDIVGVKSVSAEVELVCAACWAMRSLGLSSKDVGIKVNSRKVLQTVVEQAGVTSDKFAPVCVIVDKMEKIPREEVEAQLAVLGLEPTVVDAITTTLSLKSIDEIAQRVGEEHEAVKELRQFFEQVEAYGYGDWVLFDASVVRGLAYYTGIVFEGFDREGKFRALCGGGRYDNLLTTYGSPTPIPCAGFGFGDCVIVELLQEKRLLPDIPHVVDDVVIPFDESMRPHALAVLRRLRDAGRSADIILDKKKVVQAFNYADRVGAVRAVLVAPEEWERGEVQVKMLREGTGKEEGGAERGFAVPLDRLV
UniProt I6X8D2, whole entry: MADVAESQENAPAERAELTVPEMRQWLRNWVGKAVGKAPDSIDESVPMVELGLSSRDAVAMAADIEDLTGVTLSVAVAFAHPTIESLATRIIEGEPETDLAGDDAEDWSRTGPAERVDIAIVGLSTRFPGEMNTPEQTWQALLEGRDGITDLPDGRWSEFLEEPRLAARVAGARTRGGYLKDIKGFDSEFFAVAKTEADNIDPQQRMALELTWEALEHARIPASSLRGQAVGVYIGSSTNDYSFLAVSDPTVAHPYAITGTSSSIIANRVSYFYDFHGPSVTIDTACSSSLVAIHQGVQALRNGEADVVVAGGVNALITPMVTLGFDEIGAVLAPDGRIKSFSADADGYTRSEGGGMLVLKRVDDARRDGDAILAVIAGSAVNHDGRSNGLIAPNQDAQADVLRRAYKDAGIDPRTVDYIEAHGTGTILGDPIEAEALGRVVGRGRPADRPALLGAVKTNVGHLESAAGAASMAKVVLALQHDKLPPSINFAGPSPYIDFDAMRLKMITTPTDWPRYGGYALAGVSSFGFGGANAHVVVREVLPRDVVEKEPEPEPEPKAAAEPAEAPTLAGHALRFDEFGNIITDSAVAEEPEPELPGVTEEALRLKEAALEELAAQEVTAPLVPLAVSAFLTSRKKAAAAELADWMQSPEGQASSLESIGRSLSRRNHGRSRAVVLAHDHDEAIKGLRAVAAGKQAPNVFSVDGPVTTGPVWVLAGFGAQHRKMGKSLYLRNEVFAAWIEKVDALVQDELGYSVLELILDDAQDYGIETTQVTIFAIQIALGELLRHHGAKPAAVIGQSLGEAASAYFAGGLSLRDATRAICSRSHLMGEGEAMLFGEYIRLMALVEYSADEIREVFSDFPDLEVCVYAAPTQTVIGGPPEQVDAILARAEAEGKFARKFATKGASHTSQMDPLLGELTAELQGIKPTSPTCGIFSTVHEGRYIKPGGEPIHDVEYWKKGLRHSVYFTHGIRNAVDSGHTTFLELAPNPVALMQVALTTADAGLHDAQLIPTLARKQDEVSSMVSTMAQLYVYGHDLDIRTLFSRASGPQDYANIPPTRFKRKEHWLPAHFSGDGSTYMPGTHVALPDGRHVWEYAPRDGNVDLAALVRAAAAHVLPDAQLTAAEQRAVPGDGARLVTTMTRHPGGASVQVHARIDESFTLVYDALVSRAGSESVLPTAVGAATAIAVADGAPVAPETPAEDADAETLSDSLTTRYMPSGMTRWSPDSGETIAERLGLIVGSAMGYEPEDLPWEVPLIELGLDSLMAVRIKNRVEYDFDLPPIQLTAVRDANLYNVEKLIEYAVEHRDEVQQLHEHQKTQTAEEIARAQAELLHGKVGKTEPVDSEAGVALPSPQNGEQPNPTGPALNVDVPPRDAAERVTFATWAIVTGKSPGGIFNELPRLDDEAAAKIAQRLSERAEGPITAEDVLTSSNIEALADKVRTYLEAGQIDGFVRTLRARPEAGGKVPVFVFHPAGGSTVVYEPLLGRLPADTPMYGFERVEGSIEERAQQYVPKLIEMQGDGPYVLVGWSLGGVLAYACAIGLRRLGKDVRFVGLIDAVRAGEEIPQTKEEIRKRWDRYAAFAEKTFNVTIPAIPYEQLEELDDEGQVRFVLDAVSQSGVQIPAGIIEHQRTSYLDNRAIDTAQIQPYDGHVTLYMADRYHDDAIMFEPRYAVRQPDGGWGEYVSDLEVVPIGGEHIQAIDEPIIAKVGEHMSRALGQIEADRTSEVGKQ
UniProt P9WNZ1, whole entry: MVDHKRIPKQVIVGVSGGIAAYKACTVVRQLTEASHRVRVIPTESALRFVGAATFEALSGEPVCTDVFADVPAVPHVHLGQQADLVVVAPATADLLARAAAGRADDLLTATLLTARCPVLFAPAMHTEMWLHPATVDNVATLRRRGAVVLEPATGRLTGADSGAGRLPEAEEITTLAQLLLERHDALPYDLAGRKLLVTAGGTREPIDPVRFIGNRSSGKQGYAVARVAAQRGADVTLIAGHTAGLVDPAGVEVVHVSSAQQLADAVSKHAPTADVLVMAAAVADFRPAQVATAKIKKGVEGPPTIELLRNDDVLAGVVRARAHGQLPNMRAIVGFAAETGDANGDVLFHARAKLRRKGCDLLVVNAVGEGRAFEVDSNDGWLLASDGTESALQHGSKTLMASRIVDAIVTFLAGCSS
UniProt Q8IDJ8, 1-583: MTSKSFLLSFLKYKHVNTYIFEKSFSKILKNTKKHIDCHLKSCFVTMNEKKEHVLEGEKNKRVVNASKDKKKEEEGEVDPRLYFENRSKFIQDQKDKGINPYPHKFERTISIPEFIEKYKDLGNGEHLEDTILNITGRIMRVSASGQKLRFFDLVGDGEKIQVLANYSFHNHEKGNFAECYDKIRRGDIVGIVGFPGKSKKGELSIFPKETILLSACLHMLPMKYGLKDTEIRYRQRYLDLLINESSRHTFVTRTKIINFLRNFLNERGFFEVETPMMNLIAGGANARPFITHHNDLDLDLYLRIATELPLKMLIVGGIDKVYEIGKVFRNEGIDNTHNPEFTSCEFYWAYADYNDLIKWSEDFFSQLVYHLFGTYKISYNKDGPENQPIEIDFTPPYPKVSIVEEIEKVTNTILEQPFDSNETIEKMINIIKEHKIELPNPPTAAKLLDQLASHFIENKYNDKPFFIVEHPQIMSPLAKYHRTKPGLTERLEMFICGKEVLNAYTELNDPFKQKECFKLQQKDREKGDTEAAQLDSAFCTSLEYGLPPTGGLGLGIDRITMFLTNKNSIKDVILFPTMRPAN
UniProt P9WFT3, whole entry: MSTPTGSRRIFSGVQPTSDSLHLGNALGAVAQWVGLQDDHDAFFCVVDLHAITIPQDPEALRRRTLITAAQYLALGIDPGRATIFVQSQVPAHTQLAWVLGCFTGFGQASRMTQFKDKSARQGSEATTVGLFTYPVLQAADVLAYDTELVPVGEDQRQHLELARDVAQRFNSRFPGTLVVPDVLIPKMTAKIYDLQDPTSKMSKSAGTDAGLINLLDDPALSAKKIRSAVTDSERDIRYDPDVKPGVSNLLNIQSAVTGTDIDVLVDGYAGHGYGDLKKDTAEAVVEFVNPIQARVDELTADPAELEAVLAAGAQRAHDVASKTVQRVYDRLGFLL

Source: ChEMBL document CHEMBL3988442, “University of Dundee, Small-Polar-MMV Screening Library” (2021).

Results are given as percent effect.
The controls that fix the scale are not given in the record; negative values are as filed.
Compounds were drawn at random from those tested, without regard to their results.
Two or more numbers in one place are separate tests of the same structure; such repeats can differ widely.
A dash means the value is not listed here; it may have been measured.

TcHisRS: 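Enzyme assay of histidyl-tRNA synthetase; the read-out is not stated. Target: Histidine-tRNA ligase, Trypanosoma cruzi CL Brener (UniProt Q4DA54). Concentration: 30 µM. Direction is inferred from retests: higher values go with stronger inhibition. Of about 69,000 compounds tested this way, about 31 (0.045%) reached 50% or more in at least one test.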
Pks13 thioesterase: 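Enzyme assay of the thioesterase domain of polyketide synthase 13; the read-out is not stated. Target: Polyketide synthase Pks13, Mycobacterium tuberculosis (UniProt I6X8D2). Tested at 30 µM. The record gives no direction; the compounds picked for IC50 retests had high values, so higher reads as stronger inhibition. Size under these conditions: about 67,000 compounds, about 300 of them at 50% or above in at least one test.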
CoaBC: 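Coenzyme A biosynthesis protein CoaBC, Mycobacterium tuberculosis (UniProt P9WNZ1). Enzyme assay of CoaBC with a phosphate dye (Biomol Green) read at 650 nm. Concentration: 30 µM. Direction is inferred from only a few compounds that gave an IC50; most scored high, so higher reads as stronger inhibition. Most strong results did not repeat in a second test. Of about 67,000 compounds tested this way, about 40 (0.06%) reached 50% or more in at least one test.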
Leishmania in macrophages: 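Cell assay of Leishmania donovani living inside macrophages; the read-out is not stated. Concentration: 30 µM. The record gives no direction; compounds that gave an IC50 in retests scored well above the rest, so higher reads as stronger inhibition. Of about 69,000 compounds tested this way, about 1,000 (1.5%) reached 50% or more in at least one test.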
PfKRS1: 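Enzyme assay of the cytosolic lysyl-tRNA synthetase in 384-well plates, read by luminescence. Target: Lysine-tRNA ligase, Plasmodium falciparum 3D7 (UniProt Q8IDJ8). Compounds at 30 µM. Higher reads as stronger inhibition, judged from the few compounds that gave an IC50. Size under these conditions: about 69,000 compounds, about 49 of them at 50% or above in at least one test.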
MtTrpRS: 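Tryptophan-tRNA ligase, Mycobacterium tuberculosis (UniProt P9WFT3). Enzyme assay of tryptophanyl-tRNA synthetase; the read-out is not stated. Compounds at 10 µM. Higher most likely means stronger inhibition; the record gives no direction and few retests gave an IC50. Of about 65,000 compounds tested this way, about 64 (0.098%) reached 50% or more in at least one test.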

SMILES,TcHisRS,Pks13 thioesterase,CoaBC,Leishmania in macrophages,PfKRS1,MtTrpRS
CCN(CC)CCNC(=O)c1nn(CC)cc1Cl,1.639,-30.95,-0.1346,17.18,0.3382,2.814
COc1ccccc1CNc1ccc2nncn2n1,8.247,-4.701,-2.358,-11.98,20.14,-1.078
CN1CCN(C(=O)c2cc(C#N)cn2C)c2ccccc2C1,-2.128,-12.58,-1.434,13.53,0.9826,-1.083
Cc1nnc(NC(=O)CSCc2cc(=O)n3ccccc3n2)s1,9,-9.788,-1.976,7.192,0.05837,1.357
O=C(NCCc1cccs1)NCC(O)c1cccc(F)c1 (stereo not given),3.725,3.237,8.323,0.0374,0,-2.319
[H][C@@]12CNC[C@]1(C(=O)O)CN(C(=O)Nc1ccccc1-c1ccccc1)C2,-,-,-,-24.12,-,-
Cc1cn2nc(N3CCCC3CC(C)(C)C)sc2n1 (stereo not given),-0.3759,-16.84,7.05,10.02,1.137,-2.242
Cc1nc(C2CCCNC2)nc2c1CCCN2Cc1ccccn1.Cl.Cl (stereo not given),-,-,-,30.18,-,-
O=C1NCC(C(=O)N(Cc2cccc(Br)c2)C2CC2)N1 (stereo not given),7.143,-18.42,-3.748,-2.381,4.471,5.693
COCCN(CCOC)C(=O)c1ccn(-c2ccc3ccccn23)n1,9.195,18.24,-1.434,21.91,-0.05714,11.16
CCN(CC)Cc1ccc(C(=O)NC2CCc3cc(Br)ccc32)o1 (stereo not given),0,-38.12,10.49,41.45,2.042,0.1698
CC(=O)N1CCC(Oc2ccc(C#N)cn2)CC1,0,-9.088,2.772,-7.124,-3.141,0.07128
CCS(=O)(=O)c1ccc2oc([C@H]3CCN(Cc4ccccc4)C3)nc2c1,4.478,7.822,10.81,-31.62,2.056,-2.365
COCCS(=O)(=O)NC(C)c1ccccc1Cl (stereo not given),1.327,-,-3.271,13.82,6.31,2.037
CCOCCc1nc(Cc2ccccc2)n[nH]1,9.231,-5.908,0.4592,13.71,1.173,-0.9874
CNC(=O)[C@@H]1C[C@H]2CN(Cc3ccco3)C[C@H]2N1C,5.263,-,3.386,-,-0.8681,-1.756
Cc1cc(Oc2ccccc2)nc(C2CCN(CCO)CC2)n1,8.333,11.85,-0.4932,-5.721,5.179,-6.728
CCn1cc(NC(=O)C2CCN(CC(=O)NC(C)(C)CC)CC2)cn1,2.312,-1.189,-0.3831,36.3,0.08779,-4.329
CN(C)[C@@H]1CN(Cc2ccc(O)cc2)C[C@H]1c1cn(C)c2ccccc12,1.149,-2.155,2.632,-,0.9681,-1.953
O=C(NCC(=O)N1CCCCC1)c1sccc1C1CC1,5.82,-9.08,0.994,-6.376,-1.312,7.596
CC(=O)N1Cc2ccccc2CC2(CCCCN2C)C1 (stereo not given),6.509,-10.09,-9.211,4.767,1.517,4.754
Cc1nc2c(c(NC3CCN(Cc4cccnc4)CC3)n1)CCNCC2,2.424,-45.62,2.81,-50.05,2.699,3.461
CCN1CC(=O)NCC12CCN(C(=O)c1ccco1)C2 (stereo not given),12.62,-30.69,2.29,-,4.772,3.8
CCC[C@@H]1CN(C(=O)c2cc(-c3cccs3)n(C)n2)C[C@H]1NS(C)(=O)=O,4.95,-15.5,0,-7.478,0.2241,0.144
CN(Cc1nnc2n1CCC2)C(=O)c1ccc2c(c1)OCCO2,-0.8721,2.975,-1.513,-18.07,-5.837,69.49
COc1ccc(CN(C)CC2(O)CCNC2)cc1 (stereo not given),1.916,-1.675,-2.871,33.45,0.5837,-3.906
COCCC(=O)N1CC2(CCN(Cc3ccoc3)C2)C1,3.825,-16.39,37.31 and 10.58,-3.815,-8.83,4.758
Cn1nc(Cn2ccnc2)c2c1CN(C(=O)c1ccc[nH]1)C2,7.143,-36.56,2.843,45.66,-1.042,-0.2274
COC(=O)c1cc(OC)c(OC)cc1N(C)S(C)(=O)=O,-5.208,-13.19,-1.381,-15.52,-4.452,10.44
[H][C@@]12CN(CC3CCOCC3)CCO[C@]1([H])CN(Cc1nc(C)cs1)C2,-,-,-,53.9,-,-
CC(C)CC1SCC(=O)Nc2c1cnn2C1CCCC1 (stereo not given),0.5848,-17.63,3.283,31.41,3.685,1.331
N#Cc1cccc(CNc2cc(CO)ccc2Cl)c1,2.941,27.75,-1.22,7.322,-2.247,1.505
O=C(NCCCn1cccn1)C1CCC(=O)N(CC2CCCCC2)C1 (stereo not given),3.518,4.903,-0.1206,11.1,-1.238,0.5073
COc1ccc(CN2CC[C@H]3[C@H]2CC(=O)N3Cc2cccc(C)n2)cc1,1.442,-14.18,1.412,-,2.443,-0.6634
CC(C)OCCCNC(=O)c1ccc(-c2ccco2)[nH]c1=O,5.263,39.17,-2.966,-8.378,-1.108,-0.5477
OC[C@H]1CN(Cc2c(Cl)cncc2Cl)C[C@H]1CN1CCCC1,5.435,-30.65,2.804,23.97,4.28,-2.634
COc1cccc(-c2nc(C)c(C(=O)N[C@H](CO)CCSC)s2)c1,0.5848,-9.803,-1.263,6.568,0.3879,-3.011
Cc1nc(Cn2cncc(Br)c2=O)no1,-1.02,-6.072,14.9,-10.25,-4.014,7.725
CN(C)S(=O)(=O)N1CC[C@]2(O)CCN(Cc3cccc(C#N)c3)C[C@@H]2C1,0.5525,-11.15,10.68,-,-0.1139,-0.7843

The last 5 entries again:

{"smiles": "CC(C)OCCCNC(=O)c1ccc(-c2ccco2)[nH]c1=O", "TcHisRS": 5.263, "Pks13 thioesterase": 39.17, "CoaBC": -2.966, "Leishmania in macrophages": -8.378, "PfKRS1": -1.108, "MtTrpRS": -0.5477}
{"smiles": "OC[C@H]1CN(Cc2c(Cl)cncc2Cl)C[C@H]1CN1CCCC1", "TcHisRS": 5.435, "Pks13 thioesterase": -30.65, "CoaBC": 2.804, "Leishmania in macrophages": 23.97, "PfKRS1": 4.28, "MtTrpRS": -2.634}
{"smiles": "COc1cccc(-c2nc(C)c(C(=O)N[C@H](CO)CCSC)s2)c1", "TcHisRS": 0.5848, "Pks13 thioesterase": -9.803, "CoaBC": -1.263, "Leishmania in macrophages": 6.568, "PfKRS1": 0.3879, "MtTrpRS": -3.011}
{"smiles": "Cc1nc(Cn2cncc(Br)c2=O)no1", "TcHisRS": -1.02, "Pks13 thioesterase": -6.072, "CoaBC": 14.9, "Leishmania in macrophages": -10.25, "PfKRS1": -4.014, "MtTrpRS": 7.725}
{"smiles": "CN(C)S(=O)(=O)N1CC[C@]2(O)CCN(Cc3cccc(C#N)c3)C[C@@H]2C1", "TcHisRS": 0.5525, "Pks13 thioesterase": -11.15, "CoaBC": 10.68, "PfKRS1": -0.1139, "MtTrpRS": -0.7843}